Results on 2 molecules are retold here after publication PMC4659909.

Chains of the proteins cited; added tags and fusions are not shown. Residues count along the entry.
UniProt Q01705, residues 19-2531: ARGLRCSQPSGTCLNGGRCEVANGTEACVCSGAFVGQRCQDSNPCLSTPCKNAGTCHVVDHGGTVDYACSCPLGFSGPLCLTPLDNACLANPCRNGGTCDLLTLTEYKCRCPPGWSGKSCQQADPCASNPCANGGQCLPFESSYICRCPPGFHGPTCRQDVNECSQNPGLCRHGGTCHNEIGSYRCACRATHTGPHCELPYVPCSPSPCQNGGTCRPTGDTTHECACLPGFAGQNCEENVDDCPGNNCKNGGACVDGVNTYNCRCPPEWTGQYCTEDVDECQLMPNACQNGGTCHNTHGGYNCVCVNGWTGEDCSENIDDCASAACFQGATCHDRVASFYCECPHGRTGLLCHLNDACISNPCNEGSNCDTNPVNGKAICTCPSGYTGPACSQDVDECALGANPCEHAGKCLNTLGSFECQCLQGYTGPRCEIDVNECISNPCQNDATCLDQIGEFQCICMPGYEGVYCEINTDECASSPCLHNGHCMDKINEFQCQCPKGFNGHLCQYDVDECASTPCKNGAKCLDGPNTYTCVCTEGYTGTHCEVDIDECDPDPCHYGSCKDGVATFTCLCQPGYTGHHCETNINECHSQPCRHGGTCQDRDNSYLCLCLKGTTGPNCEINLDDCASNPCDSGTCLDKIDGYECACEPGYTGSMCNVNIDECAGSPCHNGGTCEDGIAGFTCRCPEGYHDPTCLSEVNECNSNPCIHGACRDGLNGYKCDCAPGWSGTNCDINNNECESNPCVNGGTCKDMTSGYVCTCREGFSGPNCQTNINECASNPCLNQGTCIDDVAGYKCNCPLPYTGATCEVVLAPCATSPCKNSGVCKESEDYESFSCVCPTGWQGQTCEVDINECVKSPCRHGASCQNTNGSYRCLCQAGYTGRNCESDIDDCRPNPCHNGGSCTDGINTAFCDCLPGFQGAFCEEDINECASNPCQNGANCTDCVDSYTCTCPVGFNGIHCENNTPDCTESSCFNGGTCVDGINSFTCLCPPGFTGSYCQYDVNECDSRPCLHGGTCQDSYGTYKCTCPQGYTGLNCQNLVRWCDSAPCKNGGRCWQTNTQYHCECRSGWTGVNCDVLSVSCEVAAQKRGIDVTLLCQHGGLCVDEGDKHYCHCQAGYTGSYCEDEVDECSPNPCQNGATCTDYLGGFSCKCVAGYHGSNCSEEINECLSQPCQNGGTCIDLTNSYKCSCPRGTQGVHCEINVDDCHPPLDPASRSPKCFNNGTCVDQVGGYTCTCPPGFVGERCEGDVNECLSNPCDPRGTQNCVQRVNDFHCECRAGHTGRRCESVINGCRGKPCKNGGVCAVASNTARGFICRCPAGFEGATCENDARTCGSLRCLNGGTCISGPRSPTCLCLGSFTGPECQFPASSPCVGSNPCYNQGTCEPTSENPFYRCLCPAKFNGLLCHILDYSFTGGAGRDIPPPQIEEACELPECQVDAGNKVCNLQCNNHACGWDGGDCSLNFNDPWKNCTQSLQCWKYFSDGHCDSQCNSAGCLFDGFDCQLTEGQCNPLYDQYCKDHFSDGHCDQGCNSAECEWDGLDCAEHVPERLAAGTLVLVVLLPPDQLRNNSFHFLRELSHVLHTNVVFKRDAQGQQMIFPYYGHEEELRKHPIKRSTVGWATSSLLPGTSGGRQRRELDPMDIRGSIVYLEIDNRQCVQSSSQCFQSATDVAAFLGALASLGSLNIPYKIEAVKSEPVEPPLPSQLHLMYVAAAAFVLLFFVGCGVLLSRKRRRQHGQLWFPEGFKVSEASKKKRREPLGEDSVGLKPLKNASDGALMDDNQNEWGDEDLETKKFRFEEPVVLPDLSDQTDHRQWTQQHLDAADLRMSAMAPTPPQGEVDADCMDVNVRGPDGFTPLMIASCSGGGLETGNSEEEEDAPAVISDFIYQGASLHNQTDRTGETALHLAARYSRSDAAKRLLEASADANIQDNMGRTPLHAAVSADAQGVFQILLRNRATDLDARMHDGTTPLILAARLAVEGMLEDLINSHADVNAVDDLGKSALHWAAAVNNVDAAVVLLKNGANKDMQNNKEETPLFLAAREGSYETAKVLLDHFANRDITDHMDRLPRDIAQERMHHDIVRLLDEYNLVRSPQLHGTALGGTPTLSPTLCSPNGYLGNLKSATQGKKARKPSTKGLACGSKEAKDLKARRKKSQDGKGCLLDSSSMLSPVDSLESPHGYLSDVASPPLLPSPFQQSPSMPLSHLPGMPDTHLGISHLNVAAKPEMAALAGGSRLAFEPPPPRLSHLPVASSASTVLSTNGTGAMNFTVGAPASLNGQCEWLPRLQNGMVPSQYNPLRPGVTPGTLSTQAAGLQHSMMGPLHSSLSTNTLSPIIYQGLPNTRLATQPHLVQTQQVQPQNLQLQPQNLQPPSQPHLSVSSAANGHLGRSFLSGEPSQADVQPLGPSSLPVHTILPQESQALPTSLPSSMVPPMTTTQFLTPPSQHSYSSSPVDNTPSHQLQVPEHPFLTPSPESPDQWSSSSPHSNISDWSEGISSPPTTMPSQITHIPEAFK
UniProt Q924X6, residues 29-996: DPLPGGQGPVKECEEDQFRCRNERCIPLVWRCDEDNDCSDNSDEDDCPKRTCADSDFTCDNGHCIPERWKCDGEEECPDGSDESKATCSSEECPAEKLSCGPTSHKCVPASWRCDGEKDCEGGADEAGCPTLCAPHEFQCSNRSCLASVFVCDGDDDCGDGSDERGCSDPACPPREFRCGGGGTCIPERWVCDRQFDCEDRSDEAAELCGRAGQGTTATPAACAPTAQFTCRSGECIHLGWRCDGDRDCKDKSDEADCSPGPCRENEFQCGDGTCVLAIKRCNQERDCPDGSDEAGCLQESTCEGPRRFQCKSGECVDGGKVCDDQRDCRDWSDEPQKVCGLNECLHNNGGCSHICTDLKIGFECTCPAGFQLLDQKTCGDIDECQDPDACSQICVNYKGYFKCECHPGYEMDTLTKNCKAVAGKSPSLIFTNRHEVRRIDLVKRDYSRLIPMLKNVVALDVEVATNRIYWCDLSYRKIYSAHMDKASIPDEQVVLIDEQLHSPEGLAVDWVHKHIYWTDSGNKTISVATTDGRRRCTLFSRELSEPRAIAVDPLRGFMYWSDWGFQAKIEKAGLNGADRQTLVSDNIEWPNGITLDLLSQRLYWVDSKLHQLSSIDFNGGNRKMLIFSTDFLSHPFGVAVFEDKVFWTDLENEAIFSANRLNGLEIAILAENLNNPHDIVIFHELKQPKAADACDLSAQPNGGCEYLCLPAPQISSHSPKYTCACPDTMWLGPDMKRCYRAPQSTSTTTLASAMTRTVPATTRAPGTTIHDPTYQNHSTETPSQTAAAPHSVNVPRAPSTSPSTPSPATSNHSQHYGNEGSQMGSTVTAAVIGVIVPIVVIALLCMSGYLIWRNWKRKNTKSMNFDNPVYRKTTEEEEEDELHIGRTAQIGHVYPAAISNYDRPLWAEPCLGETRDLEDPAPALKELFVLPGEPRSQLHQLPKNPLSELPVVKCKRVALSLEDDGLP

No constants are given. Whether binding was seen depends on the method and setting. Binding seen in cells or lysates may run through a third protein. Some entries that bind do so weakly or less than the wild type.

For assay [1], the target named is Notch1 (mouse (endogenous in hippocampus and cortex)) (UniProt Q01705). Description: co-IP; whole cortical lysate of WT mice in non-ionic buffer, 1.2 mg protein; protein A/G magnetic beads; washes with 0.1% Triton, 50 mM Tris-HCl pH 7.5, 300 mM NaCl, one wash with 0.2% SDS; Western blot. Background: Immunoblotting shows a protein as a band on a membrane.
Assay [2] has the same target. Description: co-IP; whole hippocampal (CA fields) cell lysate in non-ionic NP-40 buffer, 1.2 mg protein; antibodies against Notch1, ApoER2 or Dab1; protein A/G magnetic beads; washes with 0.1% Triton, 50 mM Tris-HCl pH 7.5, 300 mM NaCl, one wash with 0.2% SDS; Western blot.
Assay [3] has the same target. As to the kind of experiment: co-IP; synaptosomal membrane fractions of hippocampal CA fields (WT; N1cKO also for Notch1/ApoER2), 1.2 mg protein; antibodies against the intracellular portion of Notch1 or the extracellular portion of NR1; protein A/G magnetic beads; Western blot.
The target is the same in assay [4]. Description: co-IP; whole hippocampal (CA fields) cell lysate in non-ionic NP-40 buffer, 1.2 mg protein; antibodies against Notch1, ApoER2 or Dab1; protein A/G magnetic beads; washes with 0.1% Triton, 50 mM Tris-HCl pH 7.5, 300 mM NaCl, one wash with 0.2% SDS; Western blot. This is another data set of the same source.
Assay [5] addresses apolipoprotein E receptor 2 (ApoER2) (mouse (endogenous in hippocampus and cortex)) (UniProt Q924X6). Described as above.
Assay [6] has the same target. Description: co-IP; whole cortical lysate of WT mice in non-ionic buffer, 1.2 mg protein; protein A/G magnetic beads; washes with 0.1% Triton, 50 mM Tris-HCl pH 7.5, 300 mM NaCl, one wash with 0.2% SDS; Western blot.

Consider “apolipoprotein E receptor 2 (ApoER2) (from UniProt Q924X6 29-996)”, for which the binding result is “binds” in assay [1], “binds weakly” in assay [2] and “binds” in assay [3].

B1: Disabled 1 (Dab1) (protein, UniProt P97318 1-588)
chain: MSTETELQVAVKTSAKKDSRKKGQDRSEATLIKRFKGEGVRYKAKLIGIDEVSAARGDKLCQDSMMKLKGVVAGARSKGEHKQKIFLTISFGGIKIFDEKTGALQHHHAVHEISYIAKDITDHRAFGYVCGKEGNHRFVAIKTAQAAEPVILDLRDLFQLIYELKQREELEKKAQKDKQCEQAVYQTILEEDVEDPVYQYIVFEAGHEPIRDPETEENIYQVPTSQKKEGVYDVPKSQPNSQPLEDFESRFAAATPNRNLSMDFDELLEATKVSAVTQLELFGDMSTPPDITSPPTPATPGDAFLPSSSQTLPGSADVFGSMSFGTAAVPSGYVAMGAVLPSFWGQQPLVQQQIAMGAQPPVAQVIPGAQPIAWGQPGLFPATQQAWPTVAGQFPPAAFMPTQTVMPLAAAMFQGPLTPLATVPGTNDSARSSPQSDKPRQKMGKESFKDFQMVQPPPVPSRKPDQPSLTCTSEAFSSYFNKVGVAQDTDDCDDFDISQLNLTPVTSTTPSTNSPPTPAPRQSSPSKSSASHVSDPTADDIFEEGFESPSKSEEQEAPDGSQASSTSDPFGEPSGEPSGDNISPQDGS
For B1, the binding entry in assay [4], in assay [5], in assay [1] and in assay [6] was “binds” in each case.
